Laboratory results from article PMC11260466, “Binding of the TRF2 iDDR motif to RAD50 highlights a convergent evolutionary strategy to inactivate MRN at telomeres”.
Construct, isoform or probe ends are uncertain for at least one entry. The comparison behind a weaker result is the experiment's own reference, which may not be listed here.

Chains of the proteins cited; added tags and fusions are not shown. A line that says so, or that is headed by a name, gives the form on record, which may keep a tag or linker.
HsRAD50-head (Homo sapiens), one chain, as listed by the source, chain 1 of 2: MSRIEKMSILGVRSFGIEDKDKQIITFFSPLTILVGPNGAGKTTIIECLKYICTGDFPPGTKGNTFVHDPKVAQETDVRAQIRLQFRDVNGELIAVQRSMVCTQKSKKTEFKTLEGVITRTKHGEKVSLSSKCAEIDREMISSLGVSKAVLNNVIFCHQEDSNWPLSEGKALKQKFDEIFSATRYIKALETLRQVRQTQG
HsRAD50-head (Homo sapiens), one chain, as listed by the source, chain 2 of 2: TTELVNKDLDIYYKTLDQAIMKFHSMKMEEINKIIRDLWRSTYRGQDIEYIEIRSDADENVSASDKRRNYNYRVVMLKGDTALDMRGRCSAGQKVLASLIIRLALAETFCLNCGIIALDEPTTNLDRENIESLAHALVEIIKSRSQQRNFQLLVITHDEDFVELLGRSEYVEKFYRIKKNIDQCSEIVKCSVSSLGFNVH

System: HsRAD50-head (Homo sapiens)
Test: EMSA
Conditions: Mg-ATP, EMSA: 20 mM Bis-Tris propane pH 8.0, 200 mM NaCl, 0.5 mM TCEP, Mg-ATP added to RAD50, 500 nM DNA duplex, 5% polyacrylamide, 0.5x TBE, recombinant protein, label: 5'-carboxyfluorescein (F) on strand 1

“TAGTGCTGTAGGAGAATATACGGGCTGCTCGTGTTGACAAGTACTGAT / ATCAGTACTTGTCAACACGAGCAGCCCTATATTCTCCTACAGCACTA [48-mer DNA duplex]”: binds more weakly (+ GST-iDDR(WT) (Myc, linker, TRF2 449-473), increasing amounts, inhibition dose-dependent); binds more weakly (+ TRX-iDDR(WT) (His-TrxA-TRF2 449-473)).
